Assay results reported in PubChem BioAssay AID540276 (National Center for Advancing Translational Sciences (NCATS), 2011).
Out of some 300,000 compounds screened, about 5,400 (1.8%) were called active. Inconclusive means that the source gave no clear call. Such entries were picked first, then a sample of the others. Calls come from the whole dose curve; tested in HEK293 cells. Where the call is inconclusive, the potency comes from a doubtful curve fit.

Assay: qHTS for inhibitors of binding or entry into cells for Marburg Virus
Conditions: Marburg virus pseudotyped entry inhibition, cell reporter; activity change, negative = inhibition: at 37.8 µM (top of the series) unless noted
% is set by controls: 0 for no effect and ±100 for the full control effect; potency is the fitted concentration of half-maximal effect.

With `CCN1CCCC1CNC(=O)c1cc2c(-c3cccc(OC)c3)nn(C)c2s1` (centres undefined) as the compound, how does the Potency read?
The Potency was inconclusive: 7.08 µM [inhibitor, partial curve, poor fit].

For `Cc1ccc(-n2nc(C)c3c(C(=O)OCC(=O)N(C)C4CCS(=O)(=O)C4)cc(-c4ccccc4)nc32)cc1` (centres undefined), which Potency is on record?
Its Potency is inconclusive: 2.59 µM [activator, partial curve, poor fit].

For `CCOC(=O)CCNC(C)C1COc2ccccc2O1` (centres undefined), which Potency is on record?
The Potency was inconclusive: 0.794 µM [activator, partial curve, poor fit].

Which Potency does the source give for `CCOC(=O)C1=C(C)NC(SC)=C(C#N)C1CC(C)C` (centres undefined) here?
The Potency was inconclusive: 1.41 µM [inhibitor, full curve, poor fit].

For `CC1CN(C2CCN(C(=O)COc3ccc(Cl)cc3)CC2)CC(C)O1` (centres undefined), which “activity change, negative = inhibition” value is on record?
Its value is inactive: 16.4% [at 46.1 µM].

With `O=C(O)c1ccccc1CSc1nc2ccccc2o1` as the compound, how does the “activity change, negative = inhibition” value read?
Its value is inactive: 1.8%.

For `CCOc1ccccc1Cn1c(=O)sc2ccccc21`, which “activity change, negative = inhibition” value is on record?
The value was inactive: -28% [at 46.1 µM].

For `Cc1ccc(CNC(=O)c2ccc3c(c2)N(Cc2ccccc2Cl)C(=O)CS3)cc1`, which “activity change, negative = inhibition” value is on record?
The value was inactive: -26.4% [at 46.1 µM].

For `Cc1cccc(OCCCOc2cccc3cccnc23)c1C`, which Potency is on record?
The Potency was inconclusive: 35.5 µM [inhibitor, single point].

For `N#Cc1ccccc1OCC(=O)NC1CCCCC1`, which Potency is on record?
The Potency was inconclusive: 15.8 µM [activator, single point].

For `Cc1cc(N2CCN(c3ccc(F)cc3)CC2)n2nc(-c3ccc(Cl)cc3)nc2n1`, which “activity change, negative = inhibition” value is on record?
Its value is inactive: -7.86% [at 46.1 µM].

With `COc1cccc(/C=N/Nc2nnc(C)n2N)c1O` as the compound, how does the Potency read?
The Potency was inconclusive: 20 µM [inhibitor, partial curve, poor fit].

For `CC1CCc2[nH]c3ccc(C(=O)N(C)CC(=O)Nc4ccccc4Br)cc3c2C1` (centres undefined), which Potency is on record?
Its Potency is inconclusive: 35.5 µM [inhibitor, single point].

For `O=C(NCCc1nc2ccc(Cl)cc2[nH]1)C1CCC(=O)N(Cc2cccc(F)c2)C1` (centres undefined), which Potency is on record?
The Potency was inconclusive: 35.5 µM [inhibitor, single point].

With `CCOc1ccc(S(=O)(=O)/N=C(/Nc2ccc(C(C)=O)cc2)c2ccccc2)cc1` as the compound, how does the Potency read?
Its Potency is inconclusive: 35.5 µM [inhibitor, single point].

For `Cc1ccc(Cl)cc1N1CCN(c2cccc[n+]2C)CC1`, which Potency is on record?
The Potency was inconclusive: 0.355 µM [activator, partial curve, poor fit].

Which “activity change, negative = inhibition” value does the source give for `COC(=O)c1ccccc1NC(=O)C1CCN(S(C)(=O)=O)CC1` here?
Its value is inactive: 14.6%.

For `Cc1oc2ncn(C)c(=O)c2c1C(=O)Nc1ccc(F)cc1`, which “activity change, negative = inhibition” value is on record?
Its value is inactive: 3.56% [at 46.1 µM].

Which Potency does the source give for `CCOP(=O)(OCC)c1nc(-c2ccccc2)oc1NCc1ccccc1` here?
Its Potency is inconclusive: 13 µM [inhibitor, partial curve, poor fit].

For `O=C(O)Cc1sc(-c2ccc(C(=O)O)cc2)nc1-c1ccccc1`, which Potency is on record?
The Potency was inconclusive: 1.41 µM [activator, partial curve, poor fit].

Which Potency does the source give for `CCOc1ccc2nc(NC(=O)C3CCCO3)sc2c1` (centres undefined) here?
The Potency was inconclusive: 15.8 µM [inhibitor, single point].

Which Potency does the source give for `Cc1nn(-c2ccccc2)c(C)c1NC(=O)COC(=O)c1cc([N+](=O)[O-])ccc1NCCO` here?
Its Potency is inconclusive: 3.55 µM [inhibitor, partial curve, poor fit].

Which Potency does the source give for `COC(=O)C1C/C(=N\NS(=O)(=O)c2ccc(C)cc2)c2ccsc2C1` (centres undefined) here?
The Potency was inconclusive: 0.708 µM [inhibitor, full curve, poor fit].

Which “activity change, negative = inhibition” value does the source give for `CCC(=O)N1CCc2cc(S(=O)(=O)N3CCN(c4cc(C)ccc4C)CC3)ccc21` here?
Its value is inactive: 2.54% [at 46.1 µM].

Which Potency does the source give for `O=[N+]([O-])c1cc(Br)ccc1NS(=O)(=O)c1ccccc1` here?
The Potency was inconclusive: 15.8 µM [inhibitor, single point].

Which “activity change, negative = inhibition” value does the source give for `O=C(NCc1ccccc1)C(c1ccc(F)cc1)N(Cc1cccs1)C(=O)c1cnccn1` (centres undefined) here?
Its value is inactive: 3.75% [at 46.1 µM].

With `Cc1ccc(C)c(NC(=O)CN(C)C(=O)c2ccc(-c3ccc(Cl)cc3)o2)c1` as the compound, how does the “activity change, negative = inhibition” value read?
The value was inactive: -13.1% [at 46.1 µM].

With `C=CCOC(=O)C1=C(C)NC(SCC(=O)Nc2ccc(C)c(Cl)c2)=C(C#N)[C@@H]1c1ccco1` as the compound, how does the Potency read?
Its Potency is active: 10 µM.

Which activity change, negative = inhibition does the source give for `CCOc1ccc2nc(N3CCCC(C(=O)Nc4cc(C)ccc4C)C3)sc2c1` (centres undefined) here?
The activity change, negative = inhibition was inconclusive: 75.5% [activator] [at 46.1 µM].

For `O=C(CN1CCN(Cc2ccc(Cl)cc2)CC1)N/N=C/C=C/c1ccccc1[N+](=O)[O-]`, which Potency is on record?
The Potency was inconclusive: 16.4 µM [inhibitor, partial curve].

For `CCOc1ccc(/C=C2/SC(=O)NC2=S)cc1`, which Potency is on record?
Its Potency is inconclusive: 5.62 µM [activator, single point].

For `CC/C(C)=N/Nc1nc(-c2cc3cccc(OC)c3oc2=O)cs1`, which Potency is on record?
The Potency was inconclusive: 0.891 µM [activator, full curve, poor fit].

With `CCOC(=O)C1=C(CN2CCN(c3ccc(F)cc3)CC2)NC(=O)NC1c1cccs1` (centres undefined) as the compound, how does the Potency read?
The Potency was inconclusive: 12.6 µM [inhibitor, partial curve, poor fit].

For `CCOc1ccc(/C=N/NC(=O)Cc2cccs2)cc1`, which Potency is on record?
Its Potency is inconclusive: 11.2 µM [activator, partial curve, poor fit].

Which Potency does the source give for `O=C(C=C(O)c1ccc(Cl)cc1)C(=O)NNC(=O)C(O)(c1ccccc1)c1ccccc1` here?
Its Potency is inconclusive: 35.5 µM [inhibitor, single point].

With `Cc1cccc(Nc2nc(N)nc(N)c2N=O)c1` as the compound, how does the Potency read?
The Potency was inconclusive: 15.8 µM [inhibitor, single point].

With `CCOc1ccc(N(C(C)C(=O)NC2CCCCCC2)S(C)(=O)=O)cc1` (centres undefined) as the compound, how does the “activity change, negative = inhibition” value read?
The value was inactive: 4.47%.

Which Potency does the source give for `CSc1nc(C(=O)N2CCCC(N3CCN(c4ccccc4C)CC3)C2)cs1` (centres undefined) here?
The Potency was inconclusive: 2.51 µM [inhibitor, partial curve, poor fit].

For `CCOc1ccc(N/N=C(/C#N)C(N)=O)cc1`, which “activity change, negative = inhibition” value is on record?
Its value is inactive: 19.7%.

For `Cc1cccc(NC(=O)c2oc3ccccc3c2NC(=O)c2cc(=O)c3ccc(C)cc3o2)c1`, which “activity change, negative = inhibition” value is on record?
Its value is inactive: 0.436% [at 46.1 µM].

For `CCCCCNC(=O)c1ccccc1SC`, which “activity change, negative = inhibition” value is on record?
The value was inactive: -0.0497%.

Which Potency does the source give for `COc1ccc(CN2CCn3ncc(C(=O)Nc4ccccc4)c3C2=O)cc1` here?
Its Potency is inconclusive: 31.6 µM [activator, single point].

For `COc1ccccc1-c1nnc(SCC(=O)NCc2c(C)c(Cl)cc(C(C)C)c2O)o1`, which Potency is on record?
Its Potency is inconclusive: 13 µM [inhibitor, partial curve, poor fit].

With `NS(=O)(=O)c1cccc(NC(=O)COC(=O)/C(=C/c2cccs2)c2cccs2)c1` as the compound, how does the Potency read?
Its Potency is inconclusive: 1.41 µM [inhibitor, partial curve, poor fit].

With `O=C(C(c1ccccc1)c1ccccc1)N1CCN(Cc2ccc(Br)cc2)CC1` as the compound, how does the Potency read?
The Potency was inconclusive: 6.51 µM [inhibitor, partial curve, poor fit].

For `CC(C)(C)NC(=O)C(=O)NC(=O)c1c(F)cccc1Cl`, which “activity change, negative = inhibition” value is on record?
The value was inactive: 2.74% [at 46.1 µM].

Which Potency does the source give for `Cc1nn(-c2ccccc2)c(Cl)c1CN(C(=O)CCl)c1cccc2ccccc12` here?
Its Potency is inconclusive: 15.8 µM [inhibitor, single point].

With `CC1CCCCN1C(=O)COC(=O)c1n[nH]c2ccccc12` (centres undefined) as the compound, how does the “activity change, negative = inhibition” value read?
Its value is inactive: 7.91%.

Which Potency does the source give for `CCSc1ncc(Cl)c(C(=O)Nc2nc3ccc(Cl)cc3s2)n1` here?
The Potency was inconclusive: 5.62 µM [activator, single point].

Which “activity change, negative = inhibition” value does the source give for `O=C1c2ccccc2C(=O)N1Cc1ccc2c(c1)OCO2` here?
The value was inactive: 3.12%.

Which “activity change, negative = inhibition” value does the source give for `CCc1nnc(NC(=O)c2ccc(S(=O)(=O)N3CCCC3)cc2)s1` here?
Its value is inactive: 18.4% [at 46.1 µM].

With `COc1ccc(N2CCc3c(C)nc4c(OC)cccc4c32)cc1` as the compound, how does the Potency read?
Its Potency is inconclusive: 0.562 µM [inhibitor, full curve, poor fit].

With `COc1ccccc1C(=O)NCCC(=O)N(C)CC(=O)Nc1ccc(N2CCOCC2)cc1` as the compound, how does the Potency read?
The Potency was inconclusive: 1.58 µM [activator, partial curve, poor fit].

With `CN(C)c1ccc(NC(=O)Cn2nnc3sc4c(c3c2=O)CCC(C(C)(C)C)C4)cc1` (centres undefined) as the compound, how does the “activity change, negative = inhibition” value read?
The value was inactive: -2.37% [at 46.1 µM].

With `Cc1cccn2c(N)c(-c3ccccc3)nc12` as the compound, how does the “activity change, negative = inhibition” value read?
The value was inactive: -27.9%.

Which Potency does the source give for `O=S(=O)(c1ccc2nc(Nc3ccccc3)ccc2c1)N1CCCCC1` here?
Its Potency is inconclusive: 8.91 µM [inhibitor, partial curve].

With `COc1ccc(CCNC(=O)CSc2nc3scc(-c4ccccc4)c3c(=O)[nH]2)cc1` as the compound, how does the Potency read?
Its Potency is inconclusive: 5.62 µM [activator, single point].

With `CCC1CN(C(=O)N2CCC(C(=O)NCc3cc(OC)c(OC)c(OC)c3)CC2)c2ccccc2O1` (centres undefined) as the compound, how does the Potency read?
Its Potency is “inactive”.

Which “activity change, negative = inhibition” value does the source give for `O=C(OCC(=O)N1CCOCC1)c1ccc(Cl)nc1` here?
The value was inactive: 10.3%.

With `Cc1ccc2nc(SCC(=O)NCc3ccco3)[nH]c2c1` as the compound, how does the “activity change, negative = inhibition” value read?
Its value is inactive: -3.57%.

Which Potency does the source give for `CCCCOc1ccc(C(=O)Nc2ccc(N3CCN(C(C)=O)CC3)cc2)cc1` here?
Its Potency is inconclusive: 3.98 µM [inhibitor, full curve, poor fit].

Which “activity change, negative = inhibition” value does the source give for `CN(CC(=O)Nc1ccc(F)c(F)c1)S(=O)(=O)c1cccs1` here?
The value was inactive: 12.4% [at 46.1 µM].

With `Cc1ccc(C)c(OCc2cc(C(=O)N3CCC(N4CCCC(O)C4)CC3)no2)c1` (centres undefined) as the compound, how does the Potency read?
Its Potency is inconclusive: 25.1 µM [inhibitor, partial curve, poor fit].

With `O=C1c2cccc3c(N4CCCCC4)ccc(c23)C(=O)N1c1ccccn1` as the compound, how does the Potency read?
Its Potency is “inactive”.

With `S=C(NCCc1ccccc1)N1CCN(C(c2ccccc2)c2ccccc2)CC1` as the compound, how does the Potency read?
Its Potency is inconclusive: 12.6 µM [inhibitor, partial curve, poor fit].

Which Potency does the source give for `Cc1ccc(-c2nnc(Oc3cccc(C)c3)c3ccccc23)cc1` here?
Its Potency is inconclusive: 25.1 µM [activator, single point].

Which Potency does the source give for `COC(=O)C1CCN(C(=O)COC(=O)CC(NC(N)=O)c2ccc(Cl)cc2)CC1` (centres undefined) here?
The Potency was inconclusive: 0.058 µM [activator, full curve, poor fit].

Which Potency does the source give for `CCCc1sc(N/N=C/c2ccccn2)nc1-c1ccc(Br)cc1` here?
Its Potency is inconclusive: 7.3 µM [inhibitor, partial curve, poor fit].

Which Potency does the source give for `Oc1c(Cl)cc(Cl)cc1/C=N/NC(=S)NC1CC2C=CC1C2` (centres undefined) here?
Its Potency is inconclusive: 15.8 µM [inhibitor, partial curve, poor fit].
